These are literature values, as cited in patent US8609835B2, “Polysaccharide composition and methods of isolation of the emulsion stabilizing cationic polyelectrolytic polysaccharide” (Trustees Of Tufts College, priority 2008, dated 2013).

As a reminder, the aqueous solubility is the dissolved amount per volume that the medium holds.

The conditions of this data set: free drug, reported, cited from earlier work.

≈ marks a conversion by molar mass, not a printed value. Where two headings read alike, the source gives them in different places. Some results are limits rather than exact numbers.

As to `CC(=O)O[C@H]1C(=O)[C@@]2(C)[C@H]([C@H](OC(=O)c3ccccc3)[C@]3(O)C[C@H](OC(=O)[C@H](O)[C@@H](NC(=O)c4ccccc4)c4ccccc4)C(C)=C1C3(C)C)[C@]1(OC(C)=O)CO[C@@H]1C[C@@H]2O` [paclitaxel], the aqueous solubility (listed as PTX) was under 0.33 µg/mL and the aqueous solubility (listed as free paclitaxel) was 0.33 µg/mL (≈ 0.386 µM).
